For this assay, the target named is T1, CRY2-FLAG (cryptochrome circadian regulator 2 with a FLAG tag) (UniProt Q9R194).
T1 sequence: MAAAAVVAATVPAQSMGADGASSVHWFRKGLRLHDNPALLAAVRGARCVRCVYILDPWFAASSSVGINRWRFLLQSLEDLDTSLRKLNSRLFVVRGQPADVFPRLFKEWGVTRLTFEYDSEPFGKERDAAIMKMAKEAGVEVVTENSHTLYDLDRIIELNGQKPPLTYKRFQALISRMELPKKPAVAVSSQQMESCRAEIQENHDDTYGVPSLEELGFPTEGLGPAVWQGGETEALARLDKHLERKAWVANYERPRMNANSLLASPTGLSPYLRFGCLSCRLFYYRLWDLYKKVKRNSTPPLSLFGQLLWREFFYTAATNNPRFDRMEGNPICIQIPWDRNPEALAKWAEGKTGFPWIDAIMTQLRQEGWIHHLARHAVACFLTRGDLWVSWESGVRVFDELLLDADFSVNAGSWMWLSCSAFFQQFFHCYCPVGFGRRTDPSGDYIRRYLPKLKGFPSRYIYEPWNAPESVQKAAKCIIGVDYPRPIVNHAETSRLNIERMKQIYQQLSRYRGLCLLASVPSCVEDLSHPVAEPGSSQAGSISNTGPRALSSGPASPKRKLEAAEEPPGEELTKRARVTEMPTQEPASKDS
Nature of the assay: co-IP; C2C12 cells transfected with CRY2-FLAG; cytosolic and nuclear fractions taken 6 h after PEMF or sham exposure; diluted in IP buffer (25 mM Tris HCl pH 8, 150 mM NaCl, 1% Triton X-100, 5% glycerol); pre-cleared; FLAG antibody overnight at 4 °C, then protein A/G PLUS Agarose; Western blot for TRPC1; IgG control.

The chains behind the UniProt entries cited, without tags or fusion partners.
UniProt Q61056: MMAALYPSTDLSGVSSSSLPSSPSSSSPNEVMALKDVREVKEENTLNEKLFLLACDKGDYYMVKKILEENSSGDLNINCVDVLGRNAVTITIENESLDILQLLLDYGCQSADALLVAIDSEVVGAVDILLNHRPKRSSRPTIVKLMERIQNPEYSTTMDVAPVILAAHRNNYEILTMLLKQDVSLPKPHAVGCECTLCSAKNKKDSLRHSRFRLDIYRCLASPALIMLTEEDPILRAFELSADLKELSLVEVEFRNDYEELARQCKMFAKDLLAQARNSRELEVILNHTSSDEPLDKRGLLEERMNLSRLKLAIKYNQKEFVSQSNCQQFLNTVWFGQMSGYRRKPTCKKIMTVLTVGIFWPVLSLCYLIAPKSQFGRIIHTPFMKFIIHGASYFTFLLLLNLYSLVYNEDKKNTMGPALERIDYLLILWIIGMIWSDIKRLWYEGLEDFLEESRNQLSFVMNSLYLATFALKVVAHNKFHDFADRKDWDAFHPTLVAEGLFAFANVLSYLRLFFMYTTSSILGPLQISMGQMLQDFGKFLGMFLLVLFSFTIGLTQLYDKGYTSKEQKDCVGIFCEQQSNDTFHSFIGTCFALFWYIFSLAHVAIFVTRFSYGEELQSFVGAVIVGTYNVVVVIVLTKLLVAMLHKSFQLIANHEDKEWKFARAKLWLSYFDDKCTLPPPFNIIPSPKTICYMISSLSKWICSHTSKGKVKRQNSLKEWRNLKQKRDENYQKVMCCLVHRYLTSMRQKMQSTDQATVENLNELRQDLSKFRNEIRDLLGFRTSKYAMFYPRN

These are yes or no findings as the source states them, for the method shown. In cells and extracts the contact can be indirect. Some entries that bind do so weakly or less than the wild type. Sequences can lack the tags named with a protein.

Take “transient receptor potential canonical 1 (TRPC1) (from UniProt Q61056 1-793)”: the binding entry is on record as “binds”.

(Values after PMC11817702.)
